± gives the standard deviation of the averaged measurements. The list shows a part of the results.
Compound: Nc1nc2c(ncn2[C@@H]2O[C@H](COP(=O)(O)OP(=O)(O)OP(=O)(O)O)[C@@H](O)[C@H]2O)c(=O)[nH]1 [guanosine triphosphate]
Assay: NP40-soluble protein abundance relative to vehicle (solubility fold change) (ratio); higher = more soluble protein in presence of GTP
Summary of the method: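 Data come from three independent experiments in which Dounce-homogenised Jurkat crude lysate was treated at eight concentrations from 0.1 to 10 mM. Treatment ran 10 min at room temperature and then 3 min at 37 °C, after which 0.8% NP40 and benzonase were added for 60 min at 4 °C before ultracentrifugation. The supernatant underwent TMT labelling and LC-MS/MS, and vsn-normalised intensities were expressed as fold change against the detergent-processed vehicle in each replicate.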

Protein sequences, listed by entry. Tags and fused reporters are not part of them. Lines headed by an entry give the natural chain unless they say otherwise; changes in a name come on top.
UniProt Q9BUR5: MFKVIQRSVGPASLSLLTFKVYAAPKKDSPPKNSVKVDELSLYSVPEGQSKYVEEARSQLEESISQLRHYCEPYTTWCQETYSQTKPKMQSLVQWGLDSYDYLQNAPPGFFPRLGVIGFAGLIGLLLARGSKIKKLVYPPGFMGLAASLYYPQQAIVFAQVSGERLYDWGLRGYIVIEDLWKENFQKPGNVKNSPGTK
UniProt P51159: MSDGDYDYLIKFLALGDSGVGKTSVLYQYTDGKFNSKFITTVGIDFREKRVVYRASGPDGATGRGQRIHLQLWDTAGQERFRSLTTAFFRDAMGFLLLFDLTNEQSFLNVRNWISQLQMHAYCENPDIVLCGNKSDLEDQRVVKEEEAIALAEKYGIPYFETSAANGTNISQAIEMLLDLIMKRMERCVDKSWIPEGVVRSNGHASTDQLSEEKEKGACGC
UniProt Q01469, whole entry: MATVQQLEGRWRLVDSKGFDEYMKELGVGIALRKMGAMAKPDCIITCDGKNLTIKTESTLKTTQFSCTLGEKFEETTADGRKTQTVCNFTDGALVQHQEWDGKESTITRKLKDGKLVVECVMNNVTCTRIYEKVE
UniProt Q9NX61: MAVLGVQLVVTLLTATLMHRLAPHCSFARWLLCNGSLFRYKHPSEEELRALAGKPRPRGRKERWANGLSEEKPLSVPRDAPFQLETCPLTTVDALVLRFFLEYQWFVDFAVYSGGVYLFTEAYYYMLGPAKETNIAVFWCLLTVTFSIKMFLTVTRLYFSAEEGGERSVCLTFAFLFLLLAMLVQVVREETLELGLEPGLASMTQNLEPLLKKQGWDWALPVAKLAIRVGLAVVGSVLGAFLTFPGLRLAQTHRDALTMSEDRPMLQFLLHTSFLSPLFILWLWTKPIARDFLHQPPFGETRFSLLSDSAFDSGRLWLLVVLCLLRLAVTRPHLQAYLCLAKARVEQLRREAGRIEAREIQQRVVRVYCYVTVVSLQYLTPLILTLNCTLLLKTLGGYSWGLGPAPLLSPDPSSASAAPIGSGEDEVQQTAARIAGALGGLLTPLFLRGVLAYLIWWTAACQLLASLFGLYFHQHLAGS
UniProt Q99708: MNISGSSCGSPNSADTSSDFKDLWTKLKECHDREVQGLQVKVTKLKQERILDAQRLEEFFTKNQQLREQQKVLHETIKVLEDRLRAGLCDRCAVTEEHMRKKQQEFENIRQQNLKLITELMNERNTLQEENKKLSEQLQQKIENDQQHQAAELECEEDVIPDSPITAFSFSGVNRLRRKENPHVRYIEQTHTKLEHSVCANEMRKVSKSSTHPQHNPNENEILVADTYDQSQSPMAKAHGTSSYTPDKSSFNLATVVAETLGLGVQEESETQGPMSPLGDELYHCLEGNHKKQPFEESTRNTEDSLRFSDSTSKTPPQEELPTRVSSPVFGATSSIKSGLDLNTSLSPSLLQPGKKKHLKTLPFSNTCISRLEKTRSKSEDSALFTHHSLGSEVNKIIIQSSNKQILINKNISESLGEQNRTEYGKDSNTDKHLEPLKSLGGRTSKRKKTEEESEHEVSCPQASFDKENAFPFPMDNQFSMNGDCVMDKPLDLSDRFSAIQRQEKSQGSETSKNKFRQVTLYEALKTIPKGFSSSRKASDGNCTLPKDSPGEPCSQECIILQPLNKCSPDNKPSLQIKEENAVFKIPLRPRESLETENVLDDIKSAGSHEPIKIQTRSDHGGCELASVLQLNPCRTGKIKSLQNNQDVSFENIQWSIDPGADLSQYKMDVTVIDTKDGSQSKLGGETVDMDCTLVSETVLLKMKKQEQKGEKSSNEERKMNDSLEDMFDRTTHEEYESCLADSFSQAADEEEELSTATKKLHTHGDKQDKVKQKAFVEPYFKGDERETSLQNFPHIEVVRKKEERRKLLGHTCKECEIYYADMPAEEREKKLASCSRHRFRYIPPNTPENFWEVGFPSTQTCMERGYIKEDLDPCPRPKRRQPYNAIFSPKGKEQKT
UniProt Q15782: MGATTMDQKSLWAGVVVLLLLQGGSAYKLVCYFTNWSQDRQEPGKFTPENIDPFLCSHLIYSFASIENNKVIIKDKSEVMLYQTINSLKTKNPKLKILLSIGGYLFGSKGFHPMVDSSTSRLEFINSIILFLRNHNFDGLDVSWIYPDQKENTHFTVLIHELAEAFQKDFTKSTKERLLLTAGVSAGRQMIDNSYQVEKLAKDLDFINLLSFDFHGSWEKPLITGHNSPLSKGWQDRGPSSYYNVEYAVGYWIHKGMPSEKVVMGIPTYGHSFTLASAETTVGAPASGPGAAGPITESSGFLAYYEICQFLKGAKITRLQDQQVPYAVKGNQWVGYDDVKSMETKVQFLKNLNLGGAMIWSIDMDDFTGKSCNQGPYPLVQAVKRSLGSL

| Target | NP40-soluble protein abundance (concentration: 0.1mM) | NP40-soluble protein abundance (concentration: 0.5mM) | NP40-soluble protein abundance (concentration: 1mM) | NP40-soluble protein abundance (concentration: 2mM) | NP40-soluble protein abundance (concentration: 4mM) | NP40-soluble protein abundance (concentration: 6mM) | NP40-soluble protein abundance (concentration: 8mM) | NP40-soluble protein abundance (concentration: 10mM) |
| --- | --- | --- | --- | --- | --- | --- | --- | --- |
| H7C1U8 and related entries (UniProt Q9BUR5) | 0.98 ± 0.038 | 0.931 ± 0.1 | 0.969 ± 0.012 | 0.974 ± 0.039 | 0.945 ± 0.053 | 0.956 ± 0.024 | 0.911 ± 0.073 | 0.95 ± 0.043 |
| H3BN55 and related entries (UniProt P51159) | 0.953 ± 0.063 | 0.982 ± 0.033 | 0.9 ± 0.05 | 0.896 ± 0.0094 | 0.9 ± 0.064 | 0.904 ± 0.013 | 0.808 ± 0.056 | 0.859 ± 0.039 |
| I6L8B7 and related entries (UniProt Q01469) | 0.863 ± 0.057 | 0.927 ± 0.061 | 0.834 ± 0.071 | 0.821 ± 0.065 | 0.789 ± 0.078 | 0.82 ± 0.06 | 0.795 ± 0.088 | 0.811 ± 0.085 |
| K7EPA3 and related entries (UniProt Q9NX61) | 1.12 ± 0.13 | 1.08 ± 0.11 | 0.974 ± 0.049 | 1.01 ± 0.15 | 0.881 ± 0.094 | 0.945 ± 0.11 | 0.963 ± 0.079 | 0.914 ± 0.073 |
| I6L8A6 and related entries (UniProt Q99708) | 1.05 ± 0.019 | 1.03 ± 0.051 | 1.059 ± 0.0025 | 1.04 ± 0.049 | 1.03 ± 0.052 | 1.02 ± 0.07 | 1.03 ± 0.1 | 1.01 ± 0.049 |
| H0YE91 and related entries (UniProt Q15782) | 1.03 ± 0.068 | 1.07 ± 0.11 | 1.13 ± 0.15 | 1.15 ± 0.056 | 1.186 ± 0.0073 | 1.153 ± 0.0023 | 1.2 ± 0.089 | 1.114 ± 0.011 |
